Three molecules from publication PMC7826843 can be followed below.

For one test, the target named is GFP–H2A.X (human) (UniProt P16104). Put plainly: affinity purification with mass spectrometry; SILAC-labelled HeLa Kyoto cells stably expressing GFP, GFP–H2A, –H2A.X, –H2A.Bbd or –H2A.Z.1; single-step affinity purification of soluble (chromatin-free) nuclear proteins on GFP nanotrap beads; ratio cutoff 4 and 0.25 (forward and reverse).
The target in another test is GFP–H2A.Z.1 (human) (UniProt P0C0S5). The description is as above.

These are yes or no findings as the source states them, for the method shown. Binding seen in cells or lysates may run through a third protein. These calls come from enrichment with a bait or labelling near it, and not all partners need be listed.

B1: MCM6 (protein, UniProt Q14566 1-821)
chain: MDLAAAAEPGAGSQHLEVRDEVAEKCQKLFLDFLEEFQSSDGEIKYLQLAEELIRPERNTLVVSFVDLEQFNQQLSTTIQEEFYRVYPYLCRALKTFVKDRKEIPLAKDFYVAFQDLPTRHKIRELTSSRIGLLTRISGQVVRTHPVHPELVSGTFLCLDCQTVIRDVEQQFKYTQPNICRNPVCANRRRFLLDTNKSRFVDFQKVRIQETQAELPRGSIPRSLEVILRAEAVESAQAGDKCDFTGTLIVVPDVSKLSTPGARAETNSRVSGVDGYETEGIRGLRALGVRDLSYRLVFLACCVAPTNPRFGGKELRDEEQTAESIKNQMTVKEWEKVFEMSQDKNLYHNLCTSLFPTIHGNDEVKRGVLLMLFGGVPKTTGEGTSLRGDINVCIVGDPSTAKSQFLKHVEEFSPRAVYTSGKASSAAGLTAAVVRDEESHEFVIEAGALMLADNGVCCIDEFDKMDVRDQVAIHEAMEQQTISITKAGVKATLNARTSILAAANPISGHYDRSKSLKQNINLSAPIMSRFDLFFILVDECNEVTDYAIARRIVDLHSRIEESIDRVYSLDDIRRYLLFARQFKPKISKESEDFIVEQYKHLRQRDGSGVTKSSWRITVRQLESMIRLSEAMARMHCCDEVQPKHVKEAFRLLNKSIIRVETPDVNLDQEEEIQMEVDEGAGGINGHADSPAPVNGINGYNEDINQESAPKASLRLGFSEYCRISNLIVLHLRKVEEEEDESALKRSELVNWYLKEIESEIDSEEELINKKRIIEKVIHRLTHYDHVLIELTQAGLKGSTEGSESYEEDPYLVVNPNYLLED
Consider B1, for which the binding entry with GFP–H2A.X (human) is on record as “binds”.

B2: AT-rich interaction domain 5B (ARID5B) (protein, UniProt Q14865 1-1188)
chain: MEPNSLQWVGSPCGLHGPYIFYKAFQFHLEGKPRILSLGDFFFVRCTPKDPICIAELQLLWEERTSRQLLSSSKLYFLPEDTPQGRNSDHGEDEVIAVSEKVIVKLEDLVKWVHSDFSKWRCGFHAGPVKTEALGRNGQKEALLKYRQSTLNSGLNFKDVLKEKADLGEDEEETNVIVLSYPQYCRYRSMLKRIQDKPSSILTDQFALALGGIAVVSRNPQILYCRDTFDHPTLIENESICDEFAPNLKGRPRKKKPCPQRRDSFSGVKDSNNNSDGKAVAKVKCEARSALTKPKNNHNCKKVSNEEKPKVAIGEECRADEQAFLVALYKYMKERKTPIERIPYLGFKQINLWTMFQAAQKLGGYETITARRQWKHIYDELGGNPGSTSAATCTRRHYERLILPYERFIKGEEDKPLPPIKPRKQENSSQENENKTKVSGTKRIKHEIPKSKKEKENAPKPQDAAEVSSEQEKEQETLISQKSIPEPLPAADMKKKIEGYQEFSAKPLASRVDPEKDNETDQGSNSEKVAEEAGEKGPTPPLPSAPLAPEKDSALVPGASKQPLTSPSALVDSKQESKLCCFTESPESEPQEASFPSFPTTQPPLANQNETEDDKLPAMADYIANCTVKVDQLGSDDIHNALKQTPKVLVVQSFDMFKDKDLTGPMNENHGLNYTPLLYSRGNPGIMSPLAKKKLLSQVSGASLSSSYPYGSPPPLISKKKLIARDDLCSSLSQTHHGQSTDHMAVSRPSVIQHVQSFRSKPSEERKTINDIFKHEKLSRSDPHRCSFSKHHLNPLADSYVLKQEIQEGKDKLLEKRALPHSHMPSFLADFYSSPHLHSLYRHTEHHLHNEQTSKYPSRDMYRESENSSFPSHRHQEKLHVNYLTSLHLQDKKSAAAEAPTDDQPTDLSLPKNPHKPTGKVLGLAHSTTGPQESKGISQFQVLGSQSRDCHPKACRVSPMTMSGPKKYPESLSRSGKPHHVRLENFRKMEGMVHPILHRKMSPQNIGAARPIKRSLEDLDLVIAGKKARAVSPLDPSKEVSGKEKASEQESEGSKAAHGGHSGGGSEGHKLPLSSPIFPGLYSGSLCNSGLNSRLPAGYSHSLQYLKNQTVLSPLMQPLAFHSLVMQRGIFTSPTNSQQLYRHLAAATPVGSSYGDLLHNSIYPLAAINPQAAFPSSQLSSVHPSTKL
For the molecule B2, the binding result with GFP–H2A.Z.1 (human) and in the test with GFP–H2A.X (human) was “binds” throughout.

B3: Juxtaposed with Another Zinc Finger 1 (JAZF1), endogenous (protein, UniProt Q86VZ6 1-243)
chain: MTGIAAASFFSNTCRFGGCGLHFPTLADLIEHIEDNHIDTDPRVLEKQELQQPTYVALSYINRFMTDAARREQESLKKKIQPKLSLTLSSSVSRGNVSTPPRHSSGSLTPPVTPPITPSSSFRSSTPTGSEYDEEEVDYEESDSDESWTTESAISSEAILSSMCMNGGEEKPFACPVPGCKKRYKNVNGIKYHAKNGHRTQIRVRKPFKCRCGKSYKTAQGLRHHTINFHPPVSAEIIRKMQQ
Consider B3, for which, in the test with GFP–H2A.Z.1 (human), the binding result is given as “binds”.
